Some entries share one result that the patent states for a list of compounds.
Tested on: THP-1 cells
Experiment: MTT assay for cytotoxicity, 5-day incubation
Format: cell-based
Settings: 4 μM, relative to untreated cultures

N=C(Nc1cc2ccccc2c2ccccc12)Nc1cc2ccccc2c2ccccc12 [NSC 1758, 1,3-DI-9-Phenanthrylguanidine]
reduction of cell metabolism (MTT): less than 10%

From patent US11561217B2, “Compounds inhibiting Nef-calnexin interaction” (The George Washington University, a Congressionally …, priority 2016, dated 2023)
